Consider 1 substance from paper PMC10520482.

Protein sequences, listed by entry. Tags and fused reporters are not part of them.
UniProt Q01968: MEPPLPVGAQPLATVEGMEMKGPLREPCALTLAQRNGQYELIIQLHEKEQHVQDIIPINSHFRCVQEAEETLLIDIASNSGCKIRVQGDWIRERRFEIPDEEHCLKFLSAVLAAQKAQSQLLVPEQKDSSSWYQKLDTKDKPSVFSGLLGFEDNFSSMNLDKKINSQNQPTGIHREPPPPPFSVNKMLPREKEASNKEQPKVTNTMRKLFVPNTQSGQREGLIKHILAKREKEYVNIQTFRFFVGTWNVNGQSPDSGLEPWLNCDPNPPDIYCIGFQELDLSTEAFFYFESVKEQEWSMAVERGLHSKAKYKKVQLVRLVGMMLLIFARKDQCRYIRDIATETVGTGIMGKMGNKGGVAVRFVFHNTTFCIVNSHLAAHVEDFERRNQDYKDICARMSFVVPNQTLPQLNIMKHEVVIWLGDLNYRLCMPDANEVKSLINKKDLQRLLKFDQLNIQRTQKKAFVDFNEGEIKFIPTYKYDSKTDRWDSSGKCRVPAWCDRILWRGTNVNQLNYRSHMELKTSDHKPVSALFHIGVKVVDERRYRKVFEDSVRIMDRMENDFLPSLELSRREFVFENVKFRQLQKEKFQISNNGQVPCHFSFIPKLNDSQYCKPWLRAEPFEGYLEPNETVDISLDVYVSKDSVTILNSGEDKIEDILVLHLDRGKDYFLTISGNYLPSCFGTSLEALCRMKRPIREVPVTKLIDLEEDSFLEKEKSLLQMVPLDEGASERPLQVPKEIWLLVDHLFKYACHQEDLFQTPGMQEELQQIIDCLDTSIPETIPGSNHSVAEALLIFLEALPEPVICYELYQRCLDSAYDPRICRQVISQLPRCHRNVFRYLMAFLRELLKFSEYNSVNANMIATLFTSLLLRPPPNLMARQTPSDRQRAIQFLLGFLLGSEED

No constants are given. Whether binding was seen depends on the method and setting. Binding seen in cells or lysates may run through a third protein. For part of these data: A result given as binding can be weak or reduced; the word gives no strength. For part of these data: Tags and fused reporters may be left off the sequences shown.

Assay in all cases: co-IP; HEK293T co-transfected with MYC-CENTLEIN and a GFP-tagged plasmid for 48 h; anti-GFP immunoprecipitation, blot with anti-MYC and anti-GFP; ELB buffer (50 mM HEPES pH 7.4, 250 mM NaCl, 0.1% NP-40), 4°C
For experiment [1], the target named is T1, GFP-RABIN8 (UniProt Q96QF0).
T1 sequence: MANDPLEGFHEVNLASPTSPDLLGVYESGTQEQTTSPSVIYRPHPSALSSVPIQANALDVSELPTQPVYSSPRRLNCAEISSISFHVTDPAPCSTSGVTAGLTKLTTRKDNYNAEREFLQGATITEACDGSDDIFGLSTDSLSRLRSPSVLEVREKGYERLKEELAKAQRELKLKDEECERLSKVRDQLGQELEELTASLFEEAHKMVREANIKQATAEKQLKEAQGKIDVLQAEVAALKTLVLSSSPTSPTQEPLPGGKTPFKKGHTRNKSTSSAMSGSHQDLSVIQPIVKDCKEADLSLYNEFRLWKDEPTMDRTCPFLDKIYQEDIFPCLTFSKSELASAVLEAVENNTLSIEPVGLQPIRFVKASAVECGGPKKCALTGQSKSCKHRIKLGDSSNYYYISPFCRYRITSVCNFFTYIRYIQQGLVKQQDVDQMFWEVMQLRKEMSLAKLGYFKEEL

In experiment [2] the target is GFP-OCRL (human (from HeLa cDNA)) (UniProt Q01968).
The target of experiment [3] is T2, GFP-KIFC3 (human (from HeLa cDNA)) (UniProt Q9BVG8).
T2 sequence: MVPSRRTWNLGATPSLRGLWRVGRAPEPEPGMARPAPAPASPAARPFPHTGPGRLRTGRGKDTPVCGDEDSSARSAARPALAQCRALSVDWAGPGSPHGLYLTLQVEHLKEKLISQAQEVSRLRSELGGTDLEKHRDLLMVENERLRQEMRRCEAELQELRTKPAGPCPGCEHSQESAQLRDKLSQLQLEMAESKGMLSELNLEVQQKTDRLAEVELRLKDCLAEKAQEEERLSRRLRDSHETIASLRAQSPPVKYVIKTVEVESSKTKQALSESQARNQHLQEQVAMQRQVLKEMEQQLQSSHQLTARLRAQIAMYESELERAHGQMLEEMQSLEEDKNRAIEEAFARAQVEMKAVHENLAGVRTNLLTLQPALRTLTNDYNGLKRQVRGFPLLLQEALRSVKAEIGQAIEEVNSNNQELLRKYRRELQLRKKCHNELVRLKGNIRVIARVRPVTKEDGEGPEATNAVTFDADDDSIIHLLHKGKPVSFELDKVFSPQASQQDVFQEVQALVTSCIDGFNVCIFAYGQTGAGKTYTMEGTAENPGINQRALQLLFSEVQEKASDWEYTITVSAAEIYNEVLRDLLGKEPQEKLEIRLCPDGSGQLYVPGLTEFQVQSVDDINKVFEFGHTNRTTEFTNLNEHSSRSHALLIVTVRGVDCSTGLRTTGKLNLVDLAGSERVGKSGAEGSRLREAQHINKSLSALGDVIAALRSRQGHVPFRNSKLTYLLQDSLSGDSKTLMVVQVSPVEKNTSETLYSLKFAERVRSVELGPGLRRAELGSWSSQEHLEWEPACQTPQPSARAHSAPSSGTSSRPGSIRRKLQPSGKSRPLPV

As for MYC-CENTLEIN (from UniProt Q9NXG0-2), the binding result in experiment [1] is on record as “binds”; in experiment [2], “no binding”; in experiment [3], “binds”.
